In paper PMC3900656:
These are yes or no findings as the source states them, for the method shown. Binding seen in cells or lysates may run through a third protein. Some binding calls cover weakened binding; strength is not graded here.

The chains behind the UniProt entries cited, without tags or fusion partners.
UniProt Q13418: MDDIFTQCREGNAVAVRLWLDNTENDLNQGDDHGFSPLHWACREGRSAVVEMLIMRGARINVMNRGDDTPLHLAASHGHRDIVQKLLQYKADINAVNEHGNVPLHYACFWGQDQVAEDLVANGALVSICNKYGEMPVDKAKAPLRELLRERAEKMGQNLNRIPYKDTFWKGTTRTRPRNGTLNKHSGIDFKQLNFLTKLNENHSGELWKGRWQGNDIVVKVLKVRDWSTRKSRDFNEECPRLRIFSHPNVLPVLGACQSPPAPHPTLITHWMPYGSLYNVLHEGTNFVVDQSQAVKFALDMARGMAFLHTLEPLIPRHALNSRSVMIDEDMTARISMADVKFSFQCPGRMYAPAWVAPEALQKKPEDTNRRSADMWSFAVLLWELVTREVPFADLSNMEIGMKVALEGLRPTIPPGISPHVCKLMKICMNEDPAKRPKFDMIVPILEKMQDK
UniProt P01100: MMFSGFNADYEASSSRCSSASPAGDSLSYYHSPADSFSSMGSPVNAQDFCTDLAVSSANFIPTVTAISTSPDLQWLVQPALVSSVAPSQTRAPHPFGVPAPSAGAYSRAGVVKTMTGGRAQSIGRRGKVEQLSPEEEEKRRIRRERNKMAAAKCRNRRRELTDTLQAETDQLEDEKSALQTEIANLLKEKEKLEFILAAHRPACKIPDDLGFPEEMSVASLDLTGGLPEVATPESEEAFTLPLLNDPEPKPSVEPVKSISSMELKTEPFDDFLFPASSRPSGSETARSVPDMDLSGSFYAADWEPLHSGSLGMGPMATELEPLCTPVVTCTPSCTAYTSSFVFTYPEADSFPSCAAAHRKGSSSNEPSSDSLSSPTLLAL

Columns and labels:
[1] = biological target: integrin-linked kinase (ILK) (human (endogenous in PCI13)) (UniProt Q13418); assay: co-IP; RIPA lysates (200 µg total protein) of low and high expressing COLXVI clones and mock controls; precipitated with anti-ILK or anti-c-Fos on µMACS Protein A/G MicroBeads; immunoblot for kindlin-1 or dyskerin
[2] = biological target: c-Fos (human (endogenous in PCI13)) (UniProt P01100); assay: as above

binding [1]	binding [2]	Binder
binds		kindlin-1 (protein, UniProt Q9BQL6 1-677) MLSSTDFTFASWELVVRVDHPNEEQQKDVTLRVSGDLHVGGVMLKLVEQINISQDWSDFALWWEQKHCWLLKTHWTLDKYGVQADAKLLFTPQHKMLRLRLPNLKMVRLRVSFSAVVFKAVSDICKILNIRRSEELSLLKPSGDYFKKKKKKDKNNKEPIIEDILNLESSPTASGSSVSPGLYSKTMTPIYDPINGTPASSTMTWFSDSPLTEQNCSILAFSQPPQSPEALADMYQPRSLVDKAKLNAGWLDSSRSLMEQGIQEDEQLLLRFKYYSFFDLNPKYDAVRINQLYEQARWAILLEEIDCTEEEMLIFAALQYHISKLSLSAETQDFAGESEVDEIEAALSNLEVTLEGGKADSLLEDITDIPKLADNLKLFRPKKLLPKAFKQYWFIFKDTSIAYFKNKELEQGEPLEKLNLRGCEVVPDVNVAGRKFGIKLLIPVADGMNEMYLRCDHENQYAQWMAACMLASKGKTMADSSYQPEVLNILSFLRMKNRNSASQVASSLENMDMNPECFVSPRCAKRHKSKQLAARILEAHQNVAQMPLVEAKLRFIQAWQSLPEFGLTYYLVRFKGSKKDDILGVSYNRLIKIDAATGIPVTTWRFTNIKQWNVNWETRQVVIEFDQNVFTAFTCLSADCKIVHEYIGGYIFLSTRSKDQNETLDEDLFHKLTGGQD
	binds	dyskerin (DKC1) (protein, UniProt O60832 1-514) MADAEVIILPKKHKKKKERKSLPEEDVAEIQHAEEFLIKPESKVAKLDTSQWPLLLKNFDKLNVRTTHYTPLACGSNPLKREIGDYIRTGFINLDKPSNPSSHEVVAWIRRILRVEKTGHSGTLDPKVTGCLIVCIERATRLVKSQQSAGKEYVGIVRLHNAIEGGTQLSRALETLTGALFQRPPLIAAVKRQLRVRTIYESKMIEYDPERRLGIFWVSCEAGTYIRTLCVHLGLLLGVGGQMQELRRVRSGVMSEKDHMVTMHDVLDAQWLYDNHKDESYLRRVVYPLEKLLTSHKRLVMKDSAVNAICYGAKIMLPGVLRYEDGIEVNQEIVVITTKGEAICMAIALMTTAVISTCDHGIVAKIKRVIMERDTYPRKWGLGPKASQKKLMIKQGLLDKHGKPTDSTPATWKQEYVDYSESAKKEVVAEVVKAPQVVAEAAKTAKRKRESESESDETPPAAPQLIKKEKKKSKKDKKAKAGLESGAEPGDGDSDTTKKKKKKKKAKEVELVSE
